Test results from PubChem BioAssay AID1671190 (National Center for Advancing Translational Sciences (NCATS), 2021).
Out of some 580,000 compounds screened, about 6,100 (1.1%) were called active. The inconclusive results got no clear call from the source; some entries with a clear call stand among them for comparison. The call rests on the fitted dose curve; in most records, active means well fitted inhibition curve with a large enough effect; inconclusive means small, poorly fitted or top-dose-only effect, or another doubt; inactive means no such curve, though single readings can be large or run the other way. Potencies of inconclusive entries are doubtful fits and often do not repeat.

The chains behind the UniProt entries cited, without tags or fusion partners. Where a name states a change or a piece, a line headed by the entry shows the natural chain unless it says otherwise.
UniProt P18054: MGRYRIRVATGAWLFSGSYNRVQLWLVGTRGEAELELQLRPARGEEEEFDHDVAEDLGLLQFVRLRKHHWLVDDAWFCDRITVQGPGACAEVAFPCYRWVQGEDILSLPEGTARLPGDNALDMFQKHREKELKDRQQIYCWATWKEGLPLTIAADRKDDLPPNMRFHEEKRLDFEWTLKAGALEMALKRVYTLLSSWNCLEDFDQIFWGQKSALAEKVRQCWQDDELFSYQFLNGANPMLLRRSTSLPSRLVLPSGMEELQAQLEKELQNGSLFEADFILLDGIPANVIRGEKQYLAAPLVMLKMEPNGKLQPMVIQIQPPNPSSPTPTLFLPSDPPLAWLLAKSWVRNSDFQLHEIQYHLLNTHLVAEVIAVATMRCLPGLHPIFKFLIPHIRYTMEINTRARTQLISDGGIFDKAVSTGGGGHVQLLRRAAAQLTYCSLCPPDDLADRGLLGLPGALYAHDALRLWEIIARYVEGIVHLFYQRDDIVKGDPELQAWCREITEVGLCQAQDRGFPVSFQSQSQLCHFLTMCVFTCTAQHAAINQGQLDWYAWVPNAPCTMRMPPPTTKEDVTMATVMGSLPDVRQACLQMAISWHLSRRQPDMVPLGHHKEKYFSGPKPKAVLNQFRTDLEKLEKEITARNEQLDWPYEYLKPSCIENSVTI

target: Polyunsaturated fatty acid lipoxygenase ALOX12 (Homo sapiens) (UniProt P18054); test: Primary qHTS assay for inhibitors of human arachidonate 12S-lipoxygenase (ALOX12): Round 2; conditions: purified 12hLO, xylenol orange hydroperoxide absorbance; activity change, negative = inhibition: at 108 µM (top of the series) unless noted
Summary of the method: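 Purified human 12hLO (150 nM final) in 25 mM Hepes, 0.01% Triton X-100, pH 7.0 was preincubated 15 min at room temperature with compound. Then 40 uM arachidonic acid was added, 30 min. Hydroperoxide was read by Fe-XO absorbance ratio 573/405 nm.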
On the % scale 0 is the no-effect control and ±100 the full control effect; potency means the concentration at half of the fitted maximal effect.

Row | Structure (SMILES) | Potency | activity change, negative = inhibition
1 | COc1cc(CN2CCN(Cc3ccc(SC)cc3)CC2)cc(OC)c1O | inconclusive: 8.91 µM [inhibitor, full curve, poor fit] | 
2 | CCCn1c(SCC(=O)NCc2ccco2)nnc1C(C)C | inconclusive: 28.2 µM [inhibitor, single point] | 
3 | CCOC(=O)c1ccc(-n2c(-c3ccc(C)cc3)c(C)n3c4c(=O)n(C)c(=O)n(C)c4nc23)cc1 | inconclusive: 0.282 µM [inhibitor, full curve, poor fit] | 
4 | CC(C)C(=O)NC(=O)[C@@H]1CCCN1C(=O)/C=C/c1ccccc1 | inconclusive: 112 µM [inhibitor, single point] | 
5 | O=C(NC[C@H]1COCc2nc3cccnc3n21)Nc1ccccc1 |  | inactive: 5.41% [at 176 µM]
6 | Cc1ccc(CC2(C)C(=O)Nc3ccc(OC(F)(F)F)cc32)cc1 (configuration not stated) | inconclusive: 39.8 µM [inhibitor, partial curve, poor fit] | 
7 | CCCC1Cc2c(sc3nc(SCC)nc(N)c23)CO1 (configuration not stated) |  | inactive: 47%
8 | COc1ccc(Cc2c(C(C)(C)C)nc3cc(C)c(Br)c(C)n23)c(C)c1 | inconclusive: 100 µM [inhibitor, single point] | 
9 | COc1cccc(NC(=O)n2nc(N)cc2-c2ccc(Cl)cc2)c1 |  | inactive: 16.2%
10 | C=CCOc1ccccc1C1C2=C(CC(C)(C)CC2=O)OC2=C1C(=O)CC(C)(C)C2 |  | inactive: 4.41%
11 | Cc1[nH]c2ccccc2c1C(=O)CN1C(=O)C(=O)N(CCC2=CCCCC2)C1=O | inconclusive: 31.6 µM [inhibitor, single point] | 
12 | O=C(C1CC1)N1CCc2cc(Br)cc(S(=O)(=O)N3CCN(c4ccccn4)CC3)c21 |  | inactive: -1.99%
13 | CC(=O)NCCc1nc2ccccc2n1CCOc1ccccc1 |  | inactive: -2.04%
14 | COc1cc(NC(=O)CCc2ccccc2)nc(OC)n1 |  | inactive: -1.09%
16 | O=C(CSCc1ccccc1)NNC(=S)NC1CC1 |  | inactive: -18.6%
17 | Cc1cc(NC(=O)c2ccccc2)ncc1NC(=O)c1ccco1 | inconclusive: 89.1 µM [inhibitor, partial curve, poor fit] | 
18 | Cc1ccc(C2(c3ccc(C)cc3)CC2C(=O)Nc2ccc([N+](=O)[O-])cc2O)cc1 (configuration not stated) | inconclusive: 6.31 µM [inhibitor, full curve] | 
19 | Cc1cccc(-c2cccc3c4c([nH]c23)[C@@H]2C[C@H](N(C)C(=S)NCCc3ccccc3)[C@H]([C@H](C)O)CN2CC4)c1 | inconclusive: 31.6 µM [inhibitor, single point] | 
20 | CNC(=O)[C@@H]1CN(C(=O)c2sc(C)nc2C)C[C@H]1c1n[nH]c(C)n1 |  | inactive: 49.2%
21 | CC(=O)NN1C(=O)/C(=C2/Sc3ccccc3N2C)SC1=S |  | inactive: 0%
22 | COc1ccc(OCCN2CCN(C(=O)CNC(=O)c3ccc(N4CCCC4=O)cc3)CC2)cc1 |  | inactive: -0.761%
23 | COc1ccc(OC)c(C(=O)COC(=O)CCSc2ccccc2Cl)c1 | inconclusive: 0.708 µM [inhibitor, full curve, poor fit] | 
24 | Cc1ccc(Cl)cc1-n1ncc2c(NCCCc3ccccc3)ncnc21 | inconclusive: 126 µM [inhibitor, partial curve, poor fit] | 

Row | Structure (SMILES) | Potency | activity change, negative = inhibition
25 | CCOc1ccc2nc(NC(=S)NCc3ccccc3)sc2c1 | inconclusive: 6.31 µM [inhibitor, full curve, poor fit] | 
26 | CC(C)Cc1ccc(-c2cc3nc(NCC4CC4)ccn3n2)cc1 | inconclusive: 100 µM [inhibitor, single point] | 
27 | CCC(=O)N1c2ccccc2NC2=C(C(=O)CC(C)(C)C2)C1c1cc(OC)ccc1OC (configuration not stated) |  | inactive: 9.28%
28 | Cc1ccc(CNC(=O)CCC(=O)N2CCSc3nc(C)cc(C)c32)cc1 |  | inactive: 40.3%
29 | CC1(C(=O)NS(=O)(=O)c2cccc(C#N)c2)CCN1C(=O)Cc1ccccc1Cl (configuration not stated) | inconclusive: 44.7 µM [inhibitor, partial curve, poor fit] | 
30 | COC1C(=O)N(C2CCN(C(=O)c3sc(C)nc3C)CC2)C12CCOCC2 (configuration not stated) |  | inactive: 48.2%
31 | Cc1ccc(/C(=N/Nc2ncnc3ccccc23)C(=O)O)cc1 |  | inactive: -17.1%
32 | Cc1nc(-c2ccccc2)n(Cc2ccc(F)cc2Cl)c(=O)c1CCO |  | inactive: 4.69%
33 | O=C(Cn1cc(S(=O)(=O)c2ccccc2)c(=O)c2cc3c(cc21)OCO3)Nc1ccc(Cl)cc1 | inconclusive: 39.8 µM [inhibitor, partial curve, poor fit] | 
34 | COc1cc2c(cc1OC)CN(C(=O)/C=C/c1cccc([N+](=O)[O-])c1)CC2 | inconclusive: 35.5 µM [inhibitor, partial curve, poor fit] | 
35 | COc1ccc(OC)c(NC(=O)N2CCN(c3ccc(=O)n(-c4ccccc4)n3)CC2)c1 |  | inactive: -4.29%
36 | N#Cc1ccc(CNc2ccccc2Cl)cc1 | inconclusive: 7.08 µM [inhibitor, full curve, poor fit] | 
37 | O=C(CSc1nnc(-c2c[nH]c3ccccc23)o1)N1c2ccccc2CCc2ccccc21 |  | inactive: 6.98% [at 57.4 µM]
38 | COC(=O)/C=C/c1ccccc1 |  | inactive: -0.438% [at 176 µM]
39 | CCC(C)c1ccc(NC(=S)NCc2ccccc2OC)cc1 (configuration not stated) | inconclusive: 35.5 µM [inhibitor, partial curve, poor fit] | 
40 | O=C(NCCc1ccc(Cl)cc1)C1CCc2nnc(C3CCN(C(=O)C4CC4)CC3)n21 (configuration not stated) | inconclusive: 2.51 µM [inhibitor, full curve, poor fit] | 
41 | Cc1cc(NC(=S)Nc2ccc(C)c(Cl)c2)n[nH]1 | active: 14.1 µM | 
42 | COc1ccc(NC(=O)CCc2ccccc2)cc1S(=O)(=O)N1CCCCC1 |  | inactive: 358%
43 | Cn1cc(CN2CCC(C(=O)Nc3ccc(Oc4ccccc4F)cc3)CC2)cn1 |  | inactive: 5.13%
44 | CCOC(=O)c1nnc(-c2ccccc2)nc1NCc1ccc(Cl)cc1 |  | inactive: -20.8%
45 | CCN(CC)S(=O)(=O)c1ccc(S(=O)(=O)N2CCCC2)cc1 |  | inactive: -0.826%
46 | O=C(COC(=O)/C=C/c1ccc(Cl)cc1)Nc1ccc2[nH]c(=O)[nH]c2c1 | inconclusive: 50.1 µM [inhibitor, partial curve, poor fit] | 
47 | CN1[C@@H](CCC(=O)NCc2ccc(F)cc2)CNC(=O)[C@@H]2[C@H]1CCN2Cc1cccc(Cl)c1 |  | inactive: 0.269%
48 | O=[N+]([O-])c1cccc(/C=N/n2c(-c3cccnc3)n[nH]c2=S)c1 | inconclusive: 39.8 µM [inhibitor, partial curve, poor fit] | 

Reformatted: entries from further up
Row	Structure (SMILES)	Potency	activity change, negative = inhibition
30	COC1C(=O)N(C2CCN(C(=O)c3sc(C)nc3C)CC2)C12CCOCC2 (configuration not stated)		inactive: 48.2%
31	Cc1ccc(/C(=N/Nc2ncnc3ccccc23)C(=O)O)cc1		inactive: -17.1%
32	Cc1nc(-c2ccccc2)n(Cc2ccc(F)cc2Cl)c(=O)c1CCO		inactive: 4.69%

The listing continues.

Row | Structure (SMILES) | Potency | activity change, negative = inhibition
49 | O=C(CN1Cc2ccccc2OC(c2ccccc2)C1)NCc1cccnc1 (configuration not stated) | inconclusive: 158 µM [inhibitor, single point] | 
50 | C[C@H]1COC(=O)[C@H](Cc2ccc(F)cc2)CC/C=C/C[C@@H](CC(=O)N[C@@H](CO)Cc2ccccc2)C(=O)N1 | inconclusive: 50.1 µM [inhibitor, partial curve, poor fit] | 
51 | COc1ccc(CN2C(=O)CO[C@H]3CN(Cc4c[nH]c5ccccc45)C[C@H]32)cc1 | active: 39.8 µM | 
52 | CC1=C/C(=N/NC(=S)Nc2ccc(Cl)cc2)CC(C)(C)C1 | inconclusive: 31.6 µM [inhibitor, single point] | 
53 | NC(=O)NOCc1ccc(F)cc1Cl |  | inactive: -9.12%
54 | Oc1csc(Cc2nc(-c3ccc4ccccc4c3)cs2)n1 |  | inactive: 26.5%
55 | Cc1ccc(-c2cc(-c3nnc(SCC(=O)N(C)CCC#N)n3N)c3ccccc3n2)cc1 |  | inactive: -0.199%
56 | CC(CCc1ccccc1)NC(=O)C1CC1 (configuration not stated) | inconclusive: 112 µM [inhibitor, single point] | 
57 | CN(C(=O)c1ccco1)c1nc(-c2ccc(Cl)cc2)cs1 |  | inactive: -7.13%
58 | O=C([C@@H]1C[C@H](F)CN1C(=O)c1cccs1)N1CCCCC1 |  | inactive: 6.67%
59 | Cc1ccc(C(=O)N2CCC3(CC2)COc2ccccc2C(=O)N3)cc1 | inconclusive: 50.1 µM [inhibitor, partial curve, poor fit] | 
60 | COc1ccc(C(N)c2csc(Nc3ccc(C(F)(F)F)cn3)n2)cc1 (configuration not stated) | inconclusive: 89.1 µM [inhibitor, partial curve, poor fit] | 
61 | CC(Oc1ccccc1Cl)C(=O)Nc1ccc(S(=O)(=O)N2CCOCC2)cc1 (configuration not stated) | inconclusive: 100 µM [inhibitor, single point] | 
62 | CN(CCOc1ccc(C[C@H](Nc2ccccc2C(=O)c2ccccc2)C(=O)O)cc1)c1ccccn1 | inconclusive: 35.5 µM [inhibitor, partial curve, poor fit] | 
63 | CSc1nc(Sc2ccc(Cl)cc2)c2ccccc2n1 |  | inactive: 429%
64 | O=C(Nc1ccccc1)N1CCC2(CC1)CCN(C(=O)c1ccco1)CC2 | inconclusive: 7.08 µM [inhibitor, partial curve, poor fit] | 
65 | CCn1ncc(Br)c1C(=O)Nn1c(C)nc2sc3c(c2c1=O)CCC(C)C3 (configuration not stated) | inconclusive: 1.58 µM [inhibitor, full curve, poor fit] | 
66 | Cc1ccc([N+](=O)[O-])cc1Nc1nc(N2CCOCC2)nc(N2CCOCC2)n1 |  | inactive: 2.13%
67 | CCN(CC)Cc1cc(C(=O)N2Cc3[nH]cnc3CC2C(=O)O)c(C)o1 (configuration not stated) | inconclusive: 4.47 µM [inhibitor, full curve] | 
68 | O=C(Nc1ccc(NC(=O)c2ccc(Cl)cc2Cl)cc1)c1ccc2c(c1)OCO2 | inconclusive: 39.8 µM [inhibitor, partial curve] | 
69 | CC1Cc2cc(/C=C3/SC(=S)NC3=O)ccc2O1 (configuration not stated) | inconclusive: 44.7 µM [inhibitor, partial curve, poor fit] | 
70 | CCCc1c(-c2ccc(Cl)cc2)ncn1Cc1cccc(-c2ccccc2)c1 | active: 5.01 µM | 
71 | CC1(C)CC(NC(=O)c2nc(-c3ccc4cc[nH]c4c3)no2)CC(C)(C)N1 |  | inactive: -13.2%
72 | Cc1cccc(N(Cc2ccccc2)C(=O)CCl)c1 | inconclusive: 39.8 µM [inhibitor, partial curve, poor fit] | 
